AC50 data for 40 molecules are collected here from PubChem BioAssay AID493014 (National Center for Advancing Translational Sciences (NCATS), 2011).

By AC50 is commonly meant the concentration giving half of the maximal activity seen.

The list shows a part of the results. Shown are side measurements of this screen, not its main read-out; they come without a call. The list favours compounds with an active or inconclusive main result. Potencies come from curve fits of mixed quality, noted in brackets.

A short description of this test: qHTS Assay to Find Inhibitors of Chronic Active B-Cell Receptor Signaling. The settings on record: ABC-DLBCL IkBa-CBG/CBR reporter, luminescence ratio (green luciferase fused to IkBa over red control in TMD8 lymphoma cells), 4 h. Put shortly: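 Compounds up to 46 uM were incubated four hours with TMD8 cells whose green CBG68 luciferase is fused to IkappaBalpha; red CBR luminescence normalised the signal, and concentration-effect curves were fitted to fusion, red and ratio data.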
A general note: In qHTS, concentration-response curves come from the screen itself.

The mark [1] stands for this setting: measured here: CBR red luminescence, cell number.
Setting [2] is: measured here: IkBa-CBG green luminescence.

Regarding `CCCCCCCOC(=O)c1ccc(OC(=O)c2cccnc2)cc1`, the AC50 under setting [1] was 0.366 µM [rising, full curve].

In the case of `O=C(c1ccccc1-c1nc(-c2ccc(F)cc2)no1)N1CCCC1`, the AC50 under setting [1] was 22.4 µM [rising, partial curve].

For the molecule `COc1ccc(O)c(/C=N/NC(=O)CCC(=O)Nc2ccc(F)cc2)c1`, under setting [1], the AC50 was 7.94 µM [falling, partial curve].

`CCC1CCC(c2nnc(-c3ccc([N+](=O)[O-])cc3)o2)CC1` (stereo unspecified): the AC50 under setting [1] is 16.4 µM [rising, single point].

Regarding `C=CCC[C@H](Cc1ccc(F)cc1)C(=O)OC[C@H](Cc1c[nH]c2ccccc12)NC(=O)[C@H](CC=C)CC(=O)N(CCO)Cc1ccccc1`, the AC50 under setting [1] was 20.6 µM [falling, partial curve, poor fit].

Regarding `CCOC(=O)C1(Cc2ccc(OC)cc2)CCN(C(=O)C2=CCCC2)CC1`, under setting [1], the AC50 was 35.5 µM [rising, single point].

For `COc1ccc(Cl)cc1NC(=O)c1cc(-c2ccc(C)cc2O)n[nH]1`, the AC50 under setting [1] is 15.8 µM [falling, single point].

As to `Cc1ccnc2nc(C(=O)Nc3ccc4c(c3)OCO4)nn12`, the AC50 under setting [1] is 0.00461 µM [falling, full curve, poor fit].

In the case of `COc1ccccc1NC(=O)C(C)OC(=O)CCNS(=O)(=O)c1ccc(C)c(C)c1` (stereo unspecified), the half-maximal activity concentration (AC50) under setting [1] is 29.1 µM [rising, single point].

Consider `COc1ccc(NC(=O)c2cccc(NC(=O)c3ccccc3)c2)cc1`, for which the AC50 under setting [1] is 15.8 µM [falling, single point].

With `Cc1ccc(NNC(=O)Nc2ccc(Cl)cc2)nn1`, under setting [1], the concentration at half-maximal activity (AC50) was 11.2 µM [rising, partial curve].

As to `O=C(Nc1cccc(Cl)c1)N1CCN2C(=O)c3ccccc3C12c1ccccc1` (stereo unspecified), the AC50 under setting [1] is 5.01 µM [falling, partial curve] and the AC50 under setting [2] was 12.6 µM [rising, partial curve, poor fit].

For the molecule `CCOC(=O)Cc1csc(NC(=O)c2ccc(Br)cc2)n1`, the AC50 under setting [1] is 17.8 µM [falling, single point].

As to `CCC(C(=O)NCCN1CCN(C)CC1)n1c(C)c2cnn(-c3ccccc3)c(=O)c2c1C` (stereo unspecified), under setting [1], the AC50 is 5.01 µM [rising, partial curve, poor fit].

Take `O=C(N/N=C/c1ccc(O)c(O)c1)c1ccc(CSc2cccc3cccnc23)cc1`: the AC50 under setting [1] is 7.31 µM [falling, partial curve, poor fit].

As to `O=C(N/N=C/c1cc2c(cc1Br)OCO2)c1c[nH]c2ccccc12`, the AC50 under setting [1] was 0.112 µM [rising, full curve, poor fit].

Regarding `c1ccc2sc(NN=C3CCCC3)nc2c1`, the AC50 under setting [1] is 11.2 µM [falling, partial curve, poor fit].

Take `COc1ccc(N=Nc2ccc(N)nc2N)cc1`: the AC50 under setting [1] is 0.891 µM [rising, full curve, poor fit].

As to `O=C(Nc1ccc(Cl)cc1)OCc1cncs1`, the AC50 under setting [1] was 3.98 µM [rising, partial curve, poor fit].

For the molecule `COc1ccccc1OCc1ccc(C(=O)N2CCOCC2)o1`, the AC50 under setting [1] is 6.51 µM [rising, partial curve, poor fit].

Turning to `CCSc1nnc(NC(=O)c2cccc(S(=O)(=O)N(C)c3ccc(C)cc3)c2)s1`, the AC50 under setting [1] was 8.2 µM [rising, partial curve, poor fit].

`COc1ccc(-c2coc3cc(OC4OC(CO)C(O)C(O)C4O)cc(O)c3c2=O)cc1` (stereo unspecified): under setting [1], the AC50 is 13 µM [rising, partial curve].

Turning to `FC(F)(F)c1cccc(-n2cc(-c3ccccc3)[nH]c2=S)c1`, under setting [1], the AC50 was 0.355 µM [rising, full curve, poor fit].

In the case of `C/C(=N\Nc1ncnc2sc(C)c(C)c12)c1ccccn1`, under setting [2], the AC50 is 15.8 µM [falling, partial curve, poor fit].

In the case of `Cc1noc(/C=C/N(C)C)c1S(=O)(=O)N1CCN(c2ccccc2)CC1`, the AC50 under setting [1] is 3.55 µM [rising, full curve, poor fit].

With `Nc1nc(Cl)cc(N2CCC(c3cc(-c4ccc(Cl)cc4)n[nH]3)CC2)n1`, under setting [1], the AC50 was 35.5 µM [falling, single point].

In the case of `CCCOC(=O)c1ccc(NC(=O)CC(C)(C)C)cc1`, the AC50 under setting [1] is 12.6 µM [falling, partial curve].

Turning to `CCCCCC[n+]1c(-c2ccccc2)csc1Nc1ccccc1`, the AC50 under setting [1] was 18.4 µM [rising, single point].

As to `CCSc1nnc(-c2ccc(OC)cc2)o1`, under setting [1], the concentration at half-maximal activity (AC50) was 2.06 µM [rising, partial curve].

For `Cc1c(C(=O)c2ccccc2)c2ccccn2c1CCC#N`, under setting [1], the AC50 was 1 µM [rising, partial curve, poor fit].

As to `Cc1cc2n(n1)C(c1ccccc1)CC(c1ccc(Br)cc1)=N2` (stereo unspecified), the AC50 under setting [1] is 4.61 µM [falling, single point].

For the molecule `CCCCn1c(=O)n(CC(=O)Nc2ccc(C)c(Cl)c2)c(=O)c2c1ncn2Cc1ccco1`, the half-maximal activity concentration (AC50) under setting [1] was 29.1 µM [falling, single point].

`CCOC(=O)c1ccc([N+](=O)[O-])c(CS(=O)(=O)c2ccc(Cl)cc2)c1`: the AC50 under setting [1] was 0.631 µM [rising, full curve, poor fit].

Regarding `COc1ccc(-c2csc(NC(=O)c3ccccc3NS(=O)(=O)c3ccc(F)c(F)c3)n2)cc1`, the AC50 under setting [1] was 5.62 µM [falling, single point].

For `O=C(Nc1ccc(F)cc1)N1CCN(c2ccc3nnc(-c4ccc(F)cc4)n3n2)CC1`, the AC50 under setting [1] was 7.31 µM [rising, single point].

`CN(CC(=O)Nc1ccc(F)c(F)c1F)c1cnccn1`: the half-maximal activity concentration (AC50) under setting [1] was 35.5 µM [falling, single point].

On to `O=C(NC1CCCCCC1)c1ccc(-n2cnnc2)cc1`, for which, under setting [1], the AC50 is 7.08 µM [falling, partial curve, poor fit].

As to `N#Cc1nc(COc2ccccc2)oc1N1CCOCC1`, the AC50 under setting [1] was 0.651 µM [rising, partial curve, poor fit].

With `COc1ccccc1N1CCN(C(=O)c2c(-c3c(Cl)cccc3Cl)noc2C)CC1`, the AC50 under setting [1] was 4.61 µM [rising, partial curve, poor fit].

Consider `Cc1ccnc(NS(=O)(=O)c2ccc(NC(=O)C3CCCNC3=O)cc2)n1` (stereo unspecified), for which, under setting [1], the AC50 was 7.94 µM [rising, partial curve, poor fit].
